These are yes or no findings as the source states them, for the method shown. In cells and extracts the contact can be indirect. Some entries that bind do so weakly or less than the wild type. Tags and fused reporters may be left off the sequences shown.
Columns and labels:
[1] = target: T1, GST-Gcn5 fusion protein (recombinant Arabidopsis HAT Gcn5 fused to glutathione S-transferase) (Arabidopsis) (UniProt Q9AR19); test: in vitro protein binding assays (GST pulldown)
T1 sequence (looked up): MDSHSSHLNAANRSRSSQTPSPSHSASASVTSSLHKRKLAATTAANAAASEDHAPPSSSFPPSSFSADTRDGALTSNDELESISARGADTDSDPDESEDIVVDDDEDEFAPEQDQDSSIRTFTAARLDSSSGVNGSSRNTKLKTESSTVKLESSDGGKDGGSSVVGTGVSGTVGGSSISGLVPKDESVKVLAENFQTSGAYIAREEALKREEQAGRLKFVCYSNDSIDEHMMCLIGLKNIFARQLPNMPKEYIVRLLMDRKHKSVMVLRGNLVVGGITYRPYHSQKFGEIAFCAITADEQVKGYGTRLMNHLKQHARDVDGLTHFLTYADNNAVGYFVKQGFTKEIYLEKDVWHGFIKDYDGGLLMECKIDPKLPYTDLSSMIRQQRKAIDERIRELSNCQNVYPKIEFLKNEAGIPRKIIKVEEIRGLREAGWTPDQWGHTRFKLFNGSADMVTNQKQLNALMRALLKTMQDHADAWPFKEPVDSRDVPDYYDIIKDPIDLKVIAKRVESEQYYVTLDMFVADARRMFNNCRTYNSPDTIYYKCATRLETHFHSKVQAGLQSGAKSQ

[2] = target: T2, GST-HDA19 fusion protein (recombinant Arabidopsis thaliana HDA19 fused to glutathione S-transferase) (Arabidopsis thaliana) (UniProt O22446); test: in vitro protein binding assays (GST pulldown)
T2 sequence (looked up): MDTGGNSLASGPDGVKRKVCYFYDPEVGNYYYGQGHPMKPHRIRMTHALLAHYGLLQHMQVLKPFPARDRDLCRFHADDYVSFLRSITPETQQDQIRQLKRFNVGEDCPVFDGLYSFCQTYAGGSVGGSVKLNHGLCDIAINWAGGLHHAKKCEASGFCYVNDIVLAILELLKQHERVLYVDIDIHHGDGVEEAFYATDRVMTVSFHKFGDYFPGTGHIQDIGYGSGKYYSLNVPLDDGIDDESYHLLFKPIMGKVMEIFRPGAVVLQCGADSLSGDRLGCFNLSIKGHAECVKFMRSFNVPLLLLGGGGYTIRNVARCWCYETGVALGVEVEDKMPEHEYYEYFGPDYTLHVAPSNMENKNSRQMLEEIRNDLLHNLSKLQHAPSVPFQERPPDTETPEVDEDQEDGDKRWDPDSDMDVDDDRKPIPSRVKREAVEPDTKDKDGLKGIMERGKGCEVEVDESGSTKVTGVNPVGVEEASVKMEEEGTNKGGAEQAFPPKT

[3] = target: T1, GST-Gcn5 fusion protein (recombinant Arabidopsis HAT Gcn5 fused to glutathione S-transferase) (Arabidopsis); test: GST pulldown, [35S]Met-labelled in vitro translated protein, fluorography
[4] = target: T2, GST-HDA19 fusion protein (recombinant Arabidopsis thaliana HDA19 fused to glutathione S-transferase) (Arabidopsis thaliana); test: as above
[5] = target: T1, GST-Gcn5 fusion protein (recombinant Arabidopsis HAT Gcn5 fused to glutathione S-transferase) (Arabidopsis); test: summary of GST pulldown and yeast two-hybrid results
[6] = target: T2, GST-HDA19 fusion protein (recombinant Arabidopsis thaliana HDA19 fused to glutathione S-transferase) (Arabidopsis thaliana); test: as above

Measured: binding

B1: bnKCP1 (B. napus KID-containing protein 1), full-length, in vitro translated (protein)
chain: MAGGGPTFSIELSAYGSDLPTDKASGDIPNEEGSGLSRVGSGIWSGRTVDYSSESSSSIGTPGDSEEEDEESEEDNDEEELGLASLRSLEDSLPSKGLSSHYKGKSKSFGNLGEIGSVKEVPKQENPLNKKRRLQIYNKLARKSFYSWQNPKSMPLLPVHEDNDDEEGDDGDLSDEERGGDVLARRPSFKNRALKSMSCFALSDLQEEEEEEEDE
modifications: labeled with [^35S]methionine
binds: [1] | [2] | [3] | [4] | [5] | [6]

From US20050278809A1
